Laboratory results: PubChem BioAssay AID1671195 (Yale University, 2021)
The whole screen tested about 22,000 reagents; shown is a part drawn at random. Of all reagents, about 1,510 (6.9%) got an active call. 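Active includes knockdowns raising or lowering LDL uptake; positive z-scores mean more uptake, negative mean less.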 A number with no mark means an inactive call. The numbers tell different reagents against one gene apart.

- Assay: 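Regulators of LDL receptor activity judged by labelled LDL uptake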 (primary screen)
- Cell system: human Huh7 hepatoma cells
- Reagents: siRNA pool against human genes, 18 nM
- Duration: about 2 to 2.5 days of knockdown, then 8 h LDL uptake
- Challenge: DiI-labelled LDL at 30 µg/ml for 8 h, in lipoprotein-deficient serum medium
- Detection: 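Per-cell DiI-LDL intensity by automated imaging; well means scaled to the plate median and given as a robust z-score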
- Scale: robust z-score: higher = more LDL uptake after knockdown
- Active means: 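a gene counts as active if at least two replicate z-scores exceed ±2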

robust z-score, replicate 1	robust z-score, replicate 2	robust z-score, replicate 3	gene knocked down	reagent no.
0.0393	1.99	1.75	LETR1 (lymphatic endothelial transcriptional regulator lncRNA 1)	1
-1.55	-1.63	-0.777	PSEN1 (presenilin 1)	1
-0.812	-0.855	-0.409	KRT16 (keratin 16)	1
-0.93	-1.28	-0.532	RRP36 (ribosomal RNA processing 36)	1
1.33	1.21	1.81	PRSS23 (serine protease 23)	1
-1.64	-1.1	-1.57	HUNK (hormonally up-regulated Neu-associated kinase)	1
-0.0214	-0.723	-0.556	MEMO1 (mediator of cell motility 1)	1
0.504	0.174	0.416	PBLD (phenazine biosynthesis like protein domain containing)	1
-0.326	0.416	-0.056	KRT15 (keratin 15)	1
-1.02	-1.17	-1.42	PRKAR1A	1
1.7	1.89	0.872	FGL1 (fibrinogen like 1)	1
0.33	1.41	0.971	PRR34 (PRR34 long non-coding RNA)	1
1.14	0.794	2.25	GMCL1 (germ cell-less 1, spermatogenesis associated)	1
-0.351	-0.56	-0.124	LOC253254 (retired record)	1
-1.24	-1.36	-1.08	BLTP3B (bridge-like lipid transfer protein family member 3B)	1
2.44 (active)	2.01	2.48	STAT6 (signal transducer and activator of transcription 6)	1
2.44 (active)	1.57	2.71	IFNA4 (interferon alpha 4)	1
-0.977	-0.958	-0.508	LOC342934 (retired record)	1
0.085	-0.386	-0.125	COL14A1 (collagen type XIV alpha 1 chain)	1
0.0736	0.0586	-0.0387	NUDT3 (nudix hydrolase 3)	1
-0.943	-0.993	-1.51	BST2 (bone marrow stromal cell antigen 2)	1
-0.845	-2.14	-0.256	TNNI3 (troponin I3, cardiac type)	1
-0.167	0.324	-0.415	NTF4 (neurotrophin 4)	1
1.95 (active)	2.44	2.97	SLC4A4	1
-0.567	-0.353	-0.834	MYL10 (myosin light chain 10)	1
-0.0421	0.134	-0.0358	SRGAP2B (SLIT-ROBO Rho GTPase activating protein 2B)	1
-0.37	-0.636	-0.374	CAPNS1P1 (calpain small subunit 1 pseudogene 1)	1
-1.4	-1.27	-1.25	PFDN2 (prefoldin subunit 2)	1
1.6	0.654	1.17	DNAJC27-AS1 (DNAJC27 antisense RNA 1)	1
-1.05	-1.43	-1.53	CLUHP3 (CLUH pseudogene 3)	1
0.58	0.833	0.548	LINC03033 (long independently transcribed non-coding RNA 3033)	1
-1.02	-0.481	-0.536	LINC03033 (long independently transcribed non-coding RNA 3033)	2
1.38	0.101	1.09	APPL2	1
-0.128	0.192	0.704	BUD23 (BUD23 rRNA methyltransferase and ribosome maturation factor)	1
0.336	1.43	0.194	PIPOX (pipecolic acid and sarcosine oxidase)	1
-0.187	-0.375	-0.599	CD2 (CD2 molecule)	1
-0.0491	-0.667	0.175	MTA1 (metastasis associated 1)	1
-1.42	-0.786	-0.836	SLC22A11	1
1.98 (active)	1.39	2.11	EML1 (EMAP like 1)	1
0.577	0.438	0.581	WDR19 (WD repeat domain 19)	1
-0.853	-1.03	-0.161	REG4 (regenerating family member 4)	1
-2.49	-1.51	-1.4	BBC3 (BCL2 binding component 3)	1

Next part (9 carried over from the part before).
robust z-score, replicate 1	robust z-score, replicate 2	robust z-score, replicate 3	gene knocked down	reagent no.
-0.128	0.192	0.704	BUD23 (BUD23 rRNA methyltransferase and ribosome maturation factor)	1
0.336	1.43	0.194	PIPOX (pipecolic acid and sarcosine oxidase)	1
-0.187	-0.375	-0.599	CD2 (CD2 molecule)	1
-0.0491	-0.667	0.175	MTA1 (metastasis associated 1)	1
-1.42	-0.786	-0.836	SLC22A11	1
1.98 (active)	1.39	2.11	EML1 (EMAP like 1)	1
0.577	0.438	0.581	WDR19 (WD repeat domain 19)	1
-0.853	-1.03	-0.161	REG4 (regenerating family member 4)	1
-2.49	-1.51	-1.4	BBC3 (BCL2 binding component 3)	1
1.11	1.54	1.87	TOX4P1 (TOX high mobility group box family member 4 pseudogene 1)	1
-0.697	-0.514	-0.789	B3GALT5-AS1 (B3GALT5 antisense RNA 1)	1
-0.306	-0.513	0.176	SLC29A4	1
-0.706	0.495	-0.903	GRB2 (growth factor receptor bound protein 2)	1
-0.607	-1.05	-1.01	SLC25A53	1
0.62	0.178	0.226	BMS1P21 (BMS1 pseudogene 21)	1
0.352	0.218	1.07	TMPRSS12 (transmembrane serine protease 12)	1
-0.235	-1.61	-0.792	CLEC2D (C-type lectin domain family 2 member D)	1
0.848	0.622	0.572	PTGES3P1 (prostaglandin E synthase 3 pseudogene 1)	1
1.99 (active)	1.32	2.23	PAPOLA (poly(A) polymerase alpha)	1
1.14	0.443	1.19	MRPS2 (mitochondrial ribosomal protein S2)	1
1.39	1.38	1.61	HTR2C (5-hydroxytryptamine receptor 2C)	1
-0.0652	-1.68	-1.32	LINC00951 (long independently transcribed non-coding RNA 951)	1
-2.38 (active)	-2.18	-2.17	SLC71A2	1
0.523	-0.73	-0.54	COA5 (cytochrome c oxidase assembly factor 5)	1
1.55	0.656	1.85	PAX6 (paired box 6)	1
1.96	1.29	1.95	DHRSX (dehydrogenase/reductase X-linked)	1
-1.99	-1.73	-1.74	ANKRD2 (ankyrin repeat domain 2)	1
-0.268	-0.992	0.379	TAS2R38 (taste 2 receptor member 38)	1
-0.883	-1.18	-2.37	BANP (BTG3 associated nuclear protein)	1
0.651	0.931	1.17	ZNF480 (zinc finger protein 480)	1
1.43	0.898	0.545	LOC400004 (retired record)	1
-0.812	-1.21	-0.441	RHOF (ras homolog family member F, filopodia associated)	1
0.87	0.661	0.657	LOC440147 (retired record)	1
-0.305	-0.395	-0.398	PPAT (phosphoribosyl pyrophosphate amidotransferase)	1
-1.82	-1.01	-2.11	VN1R5 (vomeronasal 1 receptor 5 (gene/pseudogene))	1
-0.0232	-0.964	-0.873	LOC399789 (retired record)	1
1.58	1.76	1.47	HCP5 (HLA complex P5)	1
-0.37	-0.284	-0.215	TBX22 (T-box transcription factor 22)	1
-0.998	-1.44	-1.42	KMT2C (lysine methyltransferase 2C)	1
-1.04	-1.11	-0.979	ZNF81 (zinc finger protein 81)	1
2.02 (active)	2.21	3.12	FBXO46 (F-box protein 46)	1
-0.327	0.0995	0.31	DSCR10 (Down syndrome critical region 10)	1
-0.448	-0.875	-0.715	ATM (ATM serine/threonine kinase)	1
-1.17	-1.4	-1.08	FOXR2 (forkhead box R2)	1
-0.98	-1.72	-1.4	FBXO47 (F-box protein 47)	1
-0.696	-0.177	-0.269	PVALEF (parvalbumin like EF-hand containing)	1
1.33 (active)	4.03	2.85	GUCY1B2 (guanylate cyclase 1 soluble subunit beta 2 (pseudogene))	1
0.999	0.138	0.274	LOC400681 (retired record)	1
-1.54	-1.46	-1.57	DPP8 (dipeptidyl peptidase 8)	1
1.35	1.56	1.28	PTPN21 (protein tyrosine phosphatase non-receptor type 21)	1
-0.402	-0.542	-0.304	ZNF563 (zinc finger protein 563)	1
-1.95	-1.75	-1.22	ZHX2 (zinc fingers and homeoboxes 2)	1
2.32 (active)	1.87	2.17	ATP5MG (ATP synthase membrane subunit g)	1
1.45	1.71	1.38	LAX1 (lymphocyte transmembrane adaptor 1)	1
